Here are results for three molecules from publication PMC9449696.

These are yes or no findings as the source states them, for the method shown. In cells and extracts the contact can be indirect. Some entries that bind do so weakly or less than the wild type. For some of these results: Tags and fused reporters may be left off the sequences shown.

Assay [1] has as its target T1, spastin, endogenous (rat (endogenous in brain)) (UniProt B2RYN7).
T1 sequence: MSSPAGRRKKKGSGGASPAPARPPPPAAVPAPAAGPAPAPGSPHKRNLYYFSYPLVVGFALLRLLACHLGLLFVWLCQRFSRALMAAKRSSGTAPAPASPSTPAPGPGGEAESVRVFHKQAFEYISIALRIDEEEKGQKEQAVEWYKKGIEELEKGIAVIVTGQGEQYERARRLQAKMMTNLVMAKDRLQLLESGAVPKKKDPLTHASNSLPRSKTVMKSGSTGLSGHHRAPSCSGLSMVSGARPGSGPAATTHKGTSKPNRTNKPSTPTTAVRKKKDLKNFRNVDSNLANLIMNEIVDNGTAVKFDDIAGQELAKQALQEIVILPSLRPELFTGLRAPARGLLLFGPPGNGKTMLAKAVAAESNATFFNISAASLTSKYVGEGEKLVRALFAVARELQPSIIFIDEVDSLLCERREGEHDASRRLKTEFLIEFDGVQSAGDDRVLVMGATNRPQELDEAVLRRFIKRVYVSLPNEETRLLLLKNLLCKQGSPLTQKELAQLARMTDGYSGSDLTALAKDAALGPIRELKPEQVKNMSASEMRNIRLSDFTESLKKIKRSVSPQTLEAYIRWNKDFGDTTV
In words: co-IP; rat brain lysates; immunoprecipitation with anti-spastin; blots with anti-spastin and anti-PDIA6.

The target of another assay is T2, GST-Spastin (UniProt B2RYN7).
T2 sequence: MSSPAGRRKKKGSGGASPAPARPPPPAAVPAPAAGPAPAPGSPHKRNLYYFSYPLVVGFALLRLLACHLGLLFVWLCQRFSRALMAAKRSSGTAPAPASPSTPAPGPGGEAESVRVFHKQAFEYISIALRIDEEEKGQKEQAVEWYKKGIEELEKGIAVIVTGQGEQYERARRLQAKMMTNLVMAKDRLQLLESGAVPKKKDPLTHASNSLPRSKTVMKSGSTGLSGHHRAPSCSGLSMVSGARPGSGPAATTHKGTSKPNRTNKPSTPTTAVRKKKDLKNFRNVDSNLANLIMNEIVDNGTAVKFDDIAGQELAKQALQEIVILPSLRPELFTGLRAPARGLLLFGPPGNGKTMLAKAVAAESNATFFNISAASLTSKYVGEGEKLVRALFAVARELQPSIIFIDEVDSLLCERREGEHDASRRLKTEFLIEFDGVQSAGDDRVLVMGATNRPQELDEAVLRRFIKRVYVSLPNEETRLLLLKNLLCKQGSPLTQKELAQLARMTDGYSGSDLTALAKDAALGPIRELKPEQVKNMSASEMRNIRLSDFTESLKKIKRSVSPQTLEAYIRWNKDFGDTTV
In words: pull-down; GST-Spastin or GST-PDIA6 on beads combined with rat brain lysates; incubated overnight at 4°C; detection by Western immunoblotting; only the target purified. For orientation: In western blotting, separated proteins are transferred to a membrane and probed.

Another assay addresses T3, GFP-Spastin (UniProt B2RYN7).
T3 sequence: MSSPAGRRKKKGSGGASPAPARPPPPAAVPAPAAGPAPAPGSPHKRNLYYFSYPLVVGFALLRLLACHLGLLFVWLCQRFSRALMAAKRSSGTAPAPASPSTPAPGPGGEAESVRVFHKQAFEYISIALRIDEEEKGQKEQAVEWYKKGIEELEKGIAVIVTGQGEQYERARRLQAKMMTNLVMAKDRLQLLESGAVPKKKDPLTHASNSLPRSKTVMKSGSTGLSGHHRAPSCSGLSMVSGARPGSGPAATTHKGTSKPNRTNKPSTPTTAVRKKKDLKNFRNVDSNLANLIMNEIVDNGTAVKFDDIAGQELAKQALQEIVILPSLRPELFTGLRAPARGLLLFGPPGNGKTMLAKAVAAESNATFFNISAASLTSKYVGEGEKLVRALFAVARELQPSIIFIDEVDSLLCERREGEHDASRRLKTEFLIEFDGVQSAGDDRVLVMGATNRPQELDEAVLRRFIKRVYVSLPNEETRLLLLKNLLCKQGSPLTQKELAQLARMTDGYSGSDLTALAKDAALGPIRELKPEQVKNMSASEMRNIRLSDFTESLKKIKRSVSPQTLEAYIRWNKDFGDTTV
In words: co-IP; COS-7 cells co-transfected with Flag-PDIA6 and GFP-Spastin; immunoprecipitation with GFP- and Flag-specific antibodies; Western immunoblotting.

The next assay addresses T4, GST-PDIA6 (UniProt Q63081).
T4 sequence: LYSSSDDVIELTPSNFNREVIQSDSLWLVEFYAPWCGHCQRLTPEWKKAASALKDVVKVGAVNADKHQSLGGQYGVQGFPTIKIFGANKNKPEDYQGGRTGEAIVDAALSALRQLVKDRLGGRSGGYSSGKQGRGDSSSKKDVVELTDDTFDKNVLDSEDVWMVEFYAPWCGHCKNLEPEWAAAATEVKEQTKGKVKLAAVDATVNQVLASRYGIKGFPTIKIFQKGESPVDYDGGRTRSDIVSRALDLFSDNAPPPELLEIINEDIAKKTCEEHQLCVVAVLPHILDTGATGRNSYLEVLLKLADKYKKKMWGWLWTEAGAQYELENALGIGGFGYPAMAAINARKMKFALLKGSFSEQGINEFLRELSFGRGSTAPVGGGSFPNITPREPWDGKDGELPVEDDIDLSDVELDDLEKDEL
The assay can be described thus: pull-down; GST-Spastin or GST-PDIA6 on beads combined with rat brain lysates; incubated overnight at 4°C; detection by Western immunoblotting; only the target purified.

B1: Protein disulfide isomerase A6 (PDIA6), endogenous (protein, UniProt Q63081 20-440)
chain: LYSSSDDVIELTPSNFNREVIQSDSLWLVEFYAPWCGHCQRLTPEWKKAASALKDVVKVGAVNADKHQSLGGQYGVQGFPTIKIFGANKNKPEDYQGGRTGEAIVDAALSALRQLVKDRLGGRSGGYSSGKQGRGDSSSKKDVVELTDDTFDKNVLDSEDVWMVEFYAPWCGHCKNLEPEWAAAATEVKEQTKGKVKLAAVDATVNQVLASRYGIKGFPTIKIFQKGESPVDYDGGRTRSDIVSRALDLFSDNAPPPELLEIINEDIAKKTCEEHQLCVVAVLPHILDTGATGRNSYLEVLLKLADKYKKKMWGWLWTEAGAQYELENALGIGGFGYPAMAAINARKMKFALLKGSFSEQGINEFLRELSFGRGSTAPVGGGSFPNITPREPWDGKDGELPVEDDIDLSDVELDDLEKDEL
B1: the binding result (in assay [1]; in the assay with GST-Spastin) was “binds” each time.

B2: Flag-PDIA6 (protein, UniProt Q63081 20-440)
chain: LYSSSDDVIELTPSNFNREVIQSDSLWLVEFYAPWCGHCQRLTPEWKKAASALKDVVKVGAVNADKHQSLGGQYGVQGFPTIKIFGANKNKPEDYQGGRTGEAIVDAALSALRQLVKDRLGGRSGGYSSGKQGRGDSSSKKDVVELTDDTFDKNVLDSEDVWMVEFYAPWCGHCKNLEPEWAAAATEVKEQTKGKVKLAAVDATVNQVLASRYGIKGFPTIKIFQKGESPVDYDGGRTRSDIVSRALDLFSDNAPPPELLEIINEDIAKKTCEEHQLCVVAVLPHILDTGATGRNSYLEVLLKLADKYKKKMWGWLWTEAGAQYELENALGIGGFGYPAMAAINARKMKFALLKGSFSEQGINEFLRELSFGRGSTAPVGGGSFPNITPREPWDGKDGELPVEDDIDLSDVELDDLEKDEL
For the molecule B2, the binding entry with GFP-Spastin is given as “binds”.

B3: spastin, endogenous (protein, UniProt B2RYN7 1-581)
chain: MSSPAGRRKKKGSGGASPAPARPPPPAAVPAPAAGPAPAPGSPHKRNLYYFSYPLVVGFALLRLLACHLGLLFVWLCQRFSRALMAAKRSSGTAPAPASPSTPAPGPGGEAESVRVFHKQAFEYISIALRIDEEEKGQKEQAVEWYKKGIEELEKGIAVIVTGQGEQYERARRLQAKMMTNLVMAKDRLQLLESGAVPKKKDPLTHASNSLPRSKTVMKSGSTGLSGHHRAPSCSGLSMVSGARPGSGPAATTHKGTSKPNRTNKPSTPTTAVRKKKDLKNFRNVDSNLANLIMNEIVDNGTAVKFDDIAGQELAKQALQEIVILPSLRPELFTGLRAPARGLLLFGPPGNGKTMLAKAVAAESNATFFNISAASLTSKYVGEGEKLVRALFAVARELQPSIIFIDEVDSLLCERREGEHDASRRLKTEFLIEFDGVQSAGDDRVLVMGATNRPQELDEAVLRRFIKRVYVSLPNEETRLLLLKNLLCKQGSPLTQKELAQLARMTDGYSGSDLTALAKDAALGPIRELKPEQVKNMSASEMRNIRLSDFTESLKKIKRSVSPQTLEAYIRWNKDFGDTTV
Consider B3, for which the binding result with GST-PDIA6 is “binds”.
